Test results from the supplement of paper PMC9454738.
± gives the standard deviation of the averaged measurements. Some of the results follow. Repeats in this data set agree poorly, so a single value says little.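 Assays used MDA-MB-231 triple-negative breast cancer cells and their brain-metastatic line MDA-MB-231BRM, stably carrying empty vector, full-length GLI1 or truncated tGLI1. After 48 h, viability was read with CellTiter-Blue and normalized to 1% DMSO vehicle. tGLI1 selectivity meant viability fell 20% more in tGLI1 cells than in vector and GLI1 cells.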

How the values were obtained:
Assay in all cases: cell viability relative to vehicle (DMSO) control (fraction); higher = more viable cells (less growth inhibition)
Settings in all cases: treatment time 48 h
MDA-MB-231 GLI1 = tested on: MDA-MB-231 GLI1
MDA-MB-231 Vector = tested on: MDA-MB-231 Vector
MDA-MB-231 tGLI1 = tested on: MDA-MB-231 tGLI1
MDA-MB-231BRM GLI1 = tested on: MDA-MB-231BRM GLI1
MDA-MB-231BRM Vector = tested on: MDA-MB-231BRM Vector
MDA-MB-231BRM tGLI1 = tested on: MDA-MB-231BRM tGLI1

SMILES	cell viability (MDA-MB-231 GLI1; 0.05 µM)	cell viability (MDA-MB-231 GLI1; 0.5 µM)	cell viability (MDA-MB-231 GLI1; 5 µM)	cell viability (MDA-MB-231 Vector; 0.05 µM)	cell viability (MDA-MB-231 Vector; 0.5 µM)	cell viability (MDA-MB-231 Vector; 5 µM)	cell viability (MDA-MB-231 tGLI1; 0.05 µM)	cell viability (MDA-MB-231 tGLI1; 0.5 µM)	cell viability (MDA-MB-231 tGLI1; 5 µM)	cell viability (MDA-MB-231BRM GLI1; 0.05 µM)	cell viability (MDA-MB-231BRM GLI1; 0.5 µM)	cell viability (MDA-MB-231BRM GLI1; 5 µM)	cell viability (MDA-MB-231BRM Vector; 0.05 µM)	cell viability (MDA-MB-231BRM Vector; 0.5 µM)	cell viability (MDA-MB-231BRM Vector; 5 µM)	cell viability (MDA-MB-231BRM tGLI1; 0.05 µM)	cell viability (MDA-MB-231BRM tGLI1; 0.5 µM)	cell viability (MDA-MB-231BRM tGLI1; 5 µM)
CN1CC2c3ccccc3Oc3ccc(Cl)cc3C2C1 (stereo not drawn) [Asenapine]	1.05	1.11	1.01	1.43	1.18	1.08	1.19	1.14	0.914	1.1	1.04	0.951	1.02	1.04	0.958	1.06	1.01	1.04
C1=N/C2=N/c3ccc(OCCN4CCCC4)c(c3)COC/C=C/COCc3cccc(c3)C(=C1)N2 [Pacritinib (SB1518)]	1.11	1.02	-0.0419	0.646	0.124	-0.129	0.689	0.241	-0.146	0.542	0.469	0.456	0.562	0.518	0.555	0.614	0.533	0.805
Cn1cnc(N)c2ncnc1-2 [3-Methyladenine]	1.28	1.01	0.987	1	1.05	0.83	1.15	1.01	1.14	0.974	1.03	1.09	0.991	0.959	1.02	1	0.996	1.01
COc1cc(OC)c(/C=C/S(=O)(=O)Cc2ccc(OC)c(NCC(=O)O)c2)c(OC)c1	1.36	0.953	0.102	1.97	0.948	0.115	1.21	0.913	0.111	1.12	1.36	1.08	1.15	1.24	1.07	1.01	1.24	1.07
Cc1cc(Nc2nc(N[C@@H](C)c3ccc(F)cc3)c(C#N)cc2F)n[nH]1	1.39	0.596	0.464	1.42	0.581	0.448	1.27	0.62	0.45	1.14	1.36	0.915	1.14	1.24	0.96	0.661	1.25	0.854
N#Cc1ccc2[nH]c(O)c(-c3ccc(CN4CCOCC4)cn3)c2c1	1.38	1.56	0.758	1.28	1.3	0.862	1.43	1.27	0.688	1.15	1.01	0.991	1.1	1.1	1	1.08	0.974	0.97
COc1cc(N2CCC(N)CC2)ccc1Nc1ncc(Cl)c(-c2c[nH]c3ccccc23)n1	1.1	1.31	-0.181	1.26	1.18	-0.12	1.46	1.13	-0.198	1.01	0.892	0.515	1.12	1.01	0.575	0.955	0.956	0.442
Cc1nc(Nc2n[nH]c3c2CN(C(=O)N[C@H](CN(C)C)c2ccccc2)C3(C)C)c2sccc2n1	0.427	0.351	0.146	0.479	0.392	0.305	0.328	0.361	0.169	0.906	0.806	0.84	0.871	0.858	0.82	0.845	0.731	0.846
OCCn1cc(-c2cnc3nnn(Cc4ccc5ncccc5c4)c3n2)cn1	1.33	1.46	1	1.04	1.12	0.788	1.02	1.45	1.18	0.942	0.926	0.954	0.914	1.07	0.964	0.726	0.946	1.03
CCN1CCCC1CNC(=O)c1cc(S(=O)(=O)CC)c(N)cc1OC (stereo not drawn) [Amisulpride]	1.1	1.13	1.11	1.04	1.2	1.19	1.05	1.17	1.21	1.02	1.04	1.04	1.01	1	1.02	1.17	1.04	1.04
COc1ccc(-c2nc(N3CCOCC3)c3sc(CN(C)c4ncc(C(=O)NO)cn4)cc3n2)cn1	-0.0209	-0.0612	-0.147	0.0223	-0.00723	-0.161	-0.0404	-0.0672	-0.124	1.04	1.03	0.886	1.1	1.03	0.971	1.01	1.01	0.9
Nc1cc(C(F)(F)F)c(-c2cc(N3CCOCC3)nc(N3CCOCC3)n2)cn1 [BKM120 (NVP-BKM120, Buparlisib)]	0.871	0.671	0.0322	1	1.05	0.121	1.14	0.755	0.128	0.988	1.1	0.96	1.04	1.08	0.928	0.967	0.986	0.889
Nc1nc(F)nc2c1ncn2[C@@H]1O[C@H](COP(=O)(O)O)[C@@H](O)[C@@H]1O [Fludarabine Phosphate (Fludara)]	1.07	1.05	1.15	1.06	1.03	1.05	1.03	1.08	0.902	0.741	0.173	-0.00292	0.66	0.221	0.0298	0.72	0.243	0.0566
CCOc1cc(C(=O)N2CCC(N3CCN(C)CC3)CC2)ccc1Nc1ncc2c(n1)N(C1CCCC1)c1ccccc1C(=O)N2C	1.37	1.09	0.41	1.17	1.01	0.495	1.37	1.13	0.415	1.09	0.959	0.977	0.974	1.03	0.926	1.04	1.04	0.915
Cc1[nH]c(/C=C2\C(=O)Nc3ccccc32)c(C)c1CCC(=O)O [TSU-68 (SU6668, Orantinib)]	1.36	1.4	1.47	1.88	1.27	1.4	1.11	1.26	1.22	1.11	1.11	0.906	1.17	1.05	0.92	0.963	1.1	0.941
COc1cc2ncnc(Nc3ccc(F)c(Cl)c3)c2cc1OCCCN1CCOCC1 [Gefitinib (ZD1839)]	1.36	1.71	1.46	1.39	1.24	1.06	1.12	1.41	1.04	0.906	0.892	0.696	0.889	0.968	0.792	0.942	0.85	0.739
CC(C)c1cnn2c(NCc3ccccc3)cc(NCCCCCCN)nc12	1.29	1.31	1.05	1.84	1.21	0.851	1.08	1.22	0.781	1.23	1.01	0.804	1.1	0.971	1.08	0.965	1.07	0.754
CS(=O)(=O)CCNCc1ccc(-c2ccc3ncnc(Nc4ccc(OCc5cccc(F)c5)c(Cl)c4)c3c2)o1	1.05	1.59	0.87	1.27	1.11	0.801	1.01	1.31	0.803	0.896	0.829	0.711	0.901	0.869	0.732	0.907	0.877	0.625
CCNc1nc(Nc2cc(F)c(C(=O)N3CCOCC3)cc2OC)ncc1C(F)(F)F	1.31	1.87	0.802	0.705	0.71	0.292	0.675	0.758	0.468	0.429	0.375	0.266	0.483	0.471	0.245	0.756	0.545	0.447
O=c1c(-c2ccc(O)cc2)coc2cc(O)cc(O)c12 [Genistein]	1.03 ± 0.07	0.972 ± 0.081	1.08 ± 0.24	1.14 ± 0.46	0.986 ± 0.015	0.977 ± 0.052	1.03 ± 0.089	1.12 ± 0.052	1.02 ± 0.048	1.06 ± 0.083	1.02 ± 0.075	0.909 ± 0.14	0.882 ± 0.21	0.978 ± 0.017	0.77 ± 0.4	1.04 ± 0.038	1.02 ± 0.16	0.893 ± 0.15
O=C(c1ccc(Nc2nccc(-c3cc4ccccc4s3)n2)cc1)N1CCC(N2CCCC2)CC1 [IKK-16 (IKK Inhibitor VII)]	1.02	0.996	-0.199	0.826	1.2	-0.159	1.01	0.992	-0.21	1.03	0.949	0.847	1.05	1	0.802	1.02	0.99	0.748

2 records picked at random from those above:
SMILES	cell viability (MDA-MB-231 GLI1; 0.05 µM)	cell viability (MDA-MB-231 GLI1; 0.5 µM)	cell viability (MDA-MB-231 GLI1; 5 µM)	cell viability (MDA-MB-231 Vector; 0.05 µM)	cell viability (MDA-MB-231 Vector; 0.5 µM)	cell viability (MDA-MB-231 Vector; 5 µM)	cell viability (MDA-MB-231 tGLI1; 0.05 µM)	cell viability (MDA-MB-231 tGLI1; 0.5 µM)	cell viability (MDA-MB-231 tGLI1; 5 µM)	cell viability (MDA-MB-231BRM GLI1; 0.05 µM)	cell viability (MDA-MB-231BRM GLI1; 0.5 µM)	cell viability (MDA-MB-231BRM GLI1; 5 µM)	cell viability (MDA-MB-231BRM Vector; 0.05 µM)	cell viability (MDA-MB-231BRM Vector; 0.5 µM)	cell viability (MDA-MB-231BRM Vector; 5 µM)	cell viability (MDA-MB-231BRM tGLI1; 0.05 µM)	cell viability (MDA-MB-231BRM tGLI1; 0.5 µM)	cell viability (MDA-MB-231BRM tGLI1; 5 µM)
O=C(c1ccc(Nc2nccc(-c3cc4ccccc4s3)n2)cc1)N1CCC(N2CCCC2)CC1 [IKK-16 (IKK Inhibitor VII)]	1.02	0.996	-0.199	0.826	1.2	-0.159	1.01	0.992	-0.21	1.03	0.949	0.847	1.05	1	0.802	1.02	0.99	0.748
COc1cc(N2CCC(N)CC2)ccc1Nc1ncc(Cl)c(-c2c[nH]c3ccccc23)n1	1.1	1.31	-0.181	1.26	1.18	-0.12	1.46	1.13	-0.198	1.01	0.892	0.515	1.12	1.01	0.575	0.955	0.956	0.442
